Taken from: PubChem BioAssay AID504774 (Drosophila RNAi Screening Center, 2011)
In all, the deposit lists about 23,000 reagents; this is a random part of those that have a named target and a result. 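Values are quantile-normalised luminescence on an arbitrary scale; higher means more cells surviving MMS.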 No sequences are given here.

Test: 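Fly genes whose loss alters survival after alkylation damage to DNA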 (primary screen)
System: Drosophila Kc167 cells
Knock-down reagent: long dsRNA against Drosophila genes, about 0.25 µg dsRNA per well
Time to read-out: about 6 days: 3 days knock-down, then 3 days with or without MMS
Treatment: methyl methanesulphonate 0.004% (w/v) for 3 days after knock-down
Read-out: 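ATP-dependent luminescence as a measure of live cells in MMS-exposed wells, quantile normalised within each plate, with replicate values also given as a mean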
Reading the numbers: mean viability with MMS and viability with MMS: higher = more surviving cells after MMS

gene	amplicon	mean viability with MMS	viability with MMS, replicate 1	viability with MMS, replicate 2
Su(dx) (GeneID 33379)	DRSC00791	3.55e6	3.93e6	4.13e6
CG32537 (GeneID 318079)	DRSC20073	3.62e6	4.15e6	4.09e6
Fic (GeneID 33897)	DRSC03247	3.54e6	3.97e6	4.05e6
CG10589 (GeneID 40313)	DRSC11629	3.44e6	3.78e6	3.98e6
Jasper (GeneID 43576)	DRSC16352	3.66e6	4.20e6	4.09e6
Dgp-1 (GeneID 37080)	DRSC07400	3.63e6	4.00e6	4.20e6
CG18233 (GeneID 40025)	DRSC10308	3.58e6	4.04e6	4.07e6
CG4686 (GeneID 42361)	DRSC15622	3.68e6	4.22e6	4.13e6
l(3)mbt (GeneID 43288)	DRSC16983	3.29e6	3.80e6	3.73e6
CG17304 (retired record) (GeneID 41796)	DRSC15222	3.14e6	3.61e6	3.57e6
CG17304 (retired record) (GeneID 41796)	DRSC23250	3.09e6	3.20e6	3.67e6
Epac (GeneID 35588)	DRSC04969	1.90e6	4.08e6	
Epac (GeneID 35588)	DRSC04996	3.64e6	4.04e6	4.03e6
Epac (GeneID 35588)	DRSC04997	3.18e6	3.51e6	3.59e6
CG12012 (GeneID 38422)	DRSC08220	3.60e6	4.05e6	4.08e6
CG9121 (GeneID 33732)	DRSC03142	3.49e6	3.97e6	3.94e6
CG4653 (GeneID 32650)	DRSC19909	3.90e6	3.69e6	3.84e6
CG4653 (GeneID 32650)	DRSC22857	3.62e6	4.15e6	4.02e6
E(var)3-9 (GeneID 41073)	DRSC14451	3.55e6	3.98e6	4.07e6
E(var)3-9 (GeneID 41073)	DRSC23242	3.52e6	4.02e6	4.00e6
CG12715 (GeneID 32252)	DRSC19492	3.49e6	3.95e6	3.94e6
CG7058 (GeneID 32873)	DRSC20021	3.62e6	4.22e6	3.95e6
side (GeneID 43300)	DRSC14523	3.76e6	4.22e6	3.91e6
side (GeneID 43300)	DRSC14716	3.62e6	4.00e6	4.20e6
side (GeneID 43300)	DRSC14717	3.60e6	4.03e6	4.13e6
side (GeneID 43300)	DRSC14718	3.67e6	4.19e6	4.13e6
side (GeneID 43300)	DRSC14721	3.56e6	4.06e6	4.01e6
RSG7 (GeneID 32674)	DRSC20274	3.62e6	4.11e6	4.09e6
RSG7 (GeneID 32674)	DRSC22852	3.50e6	4.05e6	3.91e6
CG32815 (GeneID 318224)	DRSC18177	3.74e6	4.21e6	4.21e6
na (GeneID 45338)	DRSC19639	3.58e6	4.06e6	4.05e6
Ctr1A (GeneID 31601)	DRSC18336	3.54e6	3.99e6	4.04e6
CG40498 (GeneID 3354890)	DRSC07786	3.63e6	4.04e6	4.15e6
TwdlR (GeneID 318586)	DRSC14736	3.56e6	4.06e6	3.99e6
cyst (GeneID 35237)	DRSC02023	3.56e6	3.99e6	4.11e6
hzg (GeneID 39748)	DRSC10549	3.35e6	3.80e6	3.74e6
CG33172 (GeneID 32526)	DRSC21793	3.53e6	4.00e6	4.03e6
CG1801 (GeneID 33104)	DRSC20556	3.42e6	3.82e6	3.93e6
Acp53C14c (GeneID 3346203)	DRSC05626	3.64e6	4.33e6	3.86e6
CG30289 (GeneID 246532)	DRSC03870	3.42e6	3.94e6	3.85e6
Tif-IA (GeneID 35454)	DRSC03717	3.04e6	3.48e6	3.17e6
Tif-IA (GeneID 35454)	DRSC03726	3.38e6	3.75e6	3.86e6
CG34319 (retired record) (GeneID 5740276)	DRSC18138	3.31e6	3.25e6	3.85e6
Orcokinin (GeneID 37806)	DRSC04202	3.44e6	3.97e6	3.81e6
CG11436 (GeneID 31386)	DRSC17783	3.40e6	3.84e6	3.89e6
Rpt6 (GeneID 33105)	DRSC20571	3.39e6	3.82e6	3.83e6
